Assay results published in the supplement of paper PMC12819154, “High-throughput peptide-centric local stability assay extends protein–ligand identification to membrane proteins, tissues and bacteria” (Nature Structural & Molecular Biology, 2025).
The list shows a part of the results. Most entries show no effect beyond the scatter of the controls.

Chains of the proteins cited; added tags and fusions are not shown. Lines headed by an entry give the natural chain unless they say otherwise; changes in a name come on top.
UniProt P0CB38: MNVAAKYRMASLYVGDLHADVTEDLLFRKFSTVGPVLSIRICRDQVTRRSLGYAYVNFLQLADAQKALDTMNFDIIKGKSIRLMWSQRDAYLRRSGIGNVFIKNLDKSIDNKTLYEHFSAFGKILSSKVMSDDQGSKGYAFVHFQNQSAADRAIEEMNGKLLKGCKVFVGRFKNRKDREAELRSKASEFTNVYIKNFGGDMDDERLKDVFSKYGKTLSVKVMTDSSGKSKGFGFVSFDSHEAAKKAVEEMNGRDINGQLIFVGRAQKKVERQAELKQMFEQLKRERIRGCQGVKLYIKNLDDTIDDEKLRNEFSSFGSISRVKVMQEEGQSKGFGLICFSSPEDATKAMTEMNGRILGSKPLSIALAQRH
UniProt P08238, whole entry: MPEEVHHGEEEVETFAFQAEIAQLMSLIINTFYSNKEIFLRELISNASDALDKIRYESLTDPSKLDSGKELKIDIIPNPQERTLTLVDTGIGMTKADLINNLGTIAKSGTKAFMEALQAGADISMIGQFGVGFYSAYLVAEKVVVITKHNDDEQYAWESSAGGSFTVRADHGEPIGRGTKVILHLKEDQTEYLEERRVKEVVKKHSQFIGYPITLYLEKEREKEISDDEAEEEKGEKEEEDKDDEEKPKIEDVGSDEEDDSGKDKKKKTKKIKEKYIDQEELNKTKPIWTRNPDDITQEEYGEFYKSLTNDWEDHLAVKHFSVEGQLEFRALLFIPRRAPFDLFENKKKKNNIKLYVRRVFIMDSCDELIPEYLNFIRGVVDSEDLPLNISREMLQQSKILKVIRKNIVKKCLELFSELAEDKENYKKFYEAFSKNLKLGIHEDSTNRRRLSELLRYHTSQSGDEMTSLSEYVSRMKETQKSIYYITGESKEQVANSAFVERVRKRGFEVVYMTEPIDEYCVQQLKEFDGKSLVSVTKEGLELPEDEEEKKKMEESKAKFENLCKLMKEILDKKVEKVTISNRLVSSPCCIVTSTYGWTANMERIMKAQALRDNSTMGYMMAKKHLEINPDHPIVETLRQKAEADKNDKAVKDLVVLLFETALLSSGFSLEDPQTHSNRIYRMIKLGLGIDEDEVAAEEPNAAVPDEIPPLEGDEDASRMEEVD
UniProt P04731: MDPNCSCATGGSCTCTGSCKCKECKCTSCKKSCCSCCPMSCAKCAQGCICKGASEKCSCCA
UniProt P10242: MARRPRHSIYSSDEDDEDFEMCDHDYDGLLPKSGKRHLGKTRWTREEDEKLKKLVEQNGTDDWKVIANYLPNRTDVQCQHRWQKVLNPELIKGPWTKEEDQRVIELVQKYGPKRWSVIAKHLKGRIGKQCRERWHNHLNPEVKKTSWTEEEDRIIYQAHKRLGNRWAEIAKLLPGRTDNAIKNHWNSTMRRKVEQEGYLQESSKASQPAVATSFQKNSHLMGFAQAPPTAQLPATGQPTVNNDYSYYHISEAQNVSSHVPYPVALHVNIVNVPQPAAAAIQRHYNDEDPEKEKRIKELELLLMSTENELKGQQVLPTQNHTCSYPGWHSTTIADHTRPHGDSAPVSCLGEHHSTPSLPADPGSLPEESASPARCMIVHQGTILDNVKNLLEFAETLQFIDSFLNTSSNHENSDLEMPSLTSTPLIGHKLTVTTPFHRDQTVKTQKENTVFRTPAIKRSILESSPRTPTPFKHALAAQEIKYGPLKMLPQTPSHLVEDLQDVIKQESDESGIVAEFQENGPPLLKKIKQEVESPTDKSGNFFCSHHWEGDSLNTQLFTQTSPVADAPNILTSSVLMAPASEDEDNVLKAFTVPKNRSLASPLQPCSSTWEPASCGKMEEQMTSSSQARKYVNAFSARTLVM
UniProt P07942: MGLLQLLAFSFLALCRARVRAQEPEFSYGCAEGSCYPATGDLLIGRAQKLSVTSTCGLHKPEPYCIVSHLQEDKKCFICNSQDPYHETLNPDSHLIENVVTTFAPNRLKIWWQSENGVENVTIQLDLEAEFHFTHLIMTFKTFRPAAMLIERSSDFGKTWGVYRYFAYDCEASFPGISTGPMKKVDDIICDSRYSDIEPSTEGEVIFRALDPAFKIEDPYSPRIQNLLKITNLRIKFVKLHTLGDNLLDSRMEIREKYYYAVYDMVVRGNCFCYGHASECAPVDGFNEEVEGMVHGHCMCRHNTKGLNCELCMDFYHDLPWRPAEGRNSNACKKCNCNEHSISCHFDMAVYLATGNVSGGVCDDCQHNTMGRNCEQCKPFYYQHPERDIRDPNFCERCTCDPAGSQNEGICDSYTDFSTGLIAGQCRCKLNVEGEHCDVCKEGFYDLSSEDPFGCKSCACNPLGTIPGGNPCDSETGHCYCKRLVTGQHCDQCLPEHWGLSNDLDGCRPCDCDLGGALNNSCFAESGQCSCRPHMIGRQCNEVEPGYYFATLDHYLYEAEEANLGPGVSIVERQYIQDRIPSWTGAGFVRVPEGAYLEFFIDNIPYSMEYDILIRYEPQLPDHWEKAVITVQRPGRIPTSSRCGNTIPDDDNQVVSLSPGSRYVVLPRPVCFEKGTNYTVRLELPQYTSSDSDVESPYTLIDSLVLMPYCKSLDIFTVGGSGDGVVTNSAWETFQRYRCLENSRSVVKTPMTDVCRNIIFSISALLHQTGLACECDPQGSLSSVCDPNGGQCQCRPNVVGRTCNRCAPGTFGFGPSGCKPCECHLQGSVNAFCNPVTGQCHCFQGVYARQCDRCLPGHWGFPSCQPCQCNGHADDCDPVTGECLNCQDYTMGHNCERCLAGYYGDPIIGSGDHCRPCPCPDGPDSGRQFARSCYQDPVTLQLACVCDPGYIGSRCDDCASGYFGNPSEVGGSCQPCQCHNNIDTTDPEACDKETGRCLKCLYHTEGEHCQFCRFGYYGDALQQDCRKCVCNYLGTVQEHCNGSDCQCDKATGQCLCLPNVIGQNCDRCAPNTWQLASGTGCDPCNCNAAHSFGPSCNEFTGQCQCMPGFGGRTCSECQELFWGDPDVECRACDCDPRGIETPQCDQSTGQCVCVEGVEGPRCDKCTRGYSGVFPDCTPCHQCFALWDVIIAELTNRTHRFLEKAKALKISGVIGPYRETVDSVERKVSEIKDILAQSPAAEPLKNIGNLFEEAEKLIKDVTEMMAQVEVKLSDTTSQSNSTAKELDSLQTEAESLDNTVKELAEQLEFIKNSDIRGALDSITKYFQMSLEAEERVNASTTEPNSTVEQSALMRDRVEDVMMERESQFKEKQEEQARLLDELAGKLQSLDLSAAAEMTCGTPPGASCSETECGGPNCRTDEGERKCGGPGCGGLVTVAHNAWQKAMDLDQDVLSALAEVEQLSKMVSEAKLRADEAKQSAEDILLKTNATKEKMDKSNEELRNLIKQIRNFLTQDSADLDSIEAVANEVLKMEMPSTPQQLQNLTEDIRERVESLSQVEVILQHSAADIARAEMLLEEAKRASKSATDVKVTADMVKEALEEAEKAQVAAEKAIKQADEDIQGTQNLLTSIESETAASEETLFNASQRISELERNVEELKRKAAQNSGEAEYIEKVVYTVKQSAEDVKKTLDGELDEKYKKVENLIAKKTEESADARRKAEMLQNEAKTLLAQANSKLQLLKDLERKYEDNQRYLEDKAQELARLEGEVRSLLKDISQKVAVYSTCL
UniProt P02545: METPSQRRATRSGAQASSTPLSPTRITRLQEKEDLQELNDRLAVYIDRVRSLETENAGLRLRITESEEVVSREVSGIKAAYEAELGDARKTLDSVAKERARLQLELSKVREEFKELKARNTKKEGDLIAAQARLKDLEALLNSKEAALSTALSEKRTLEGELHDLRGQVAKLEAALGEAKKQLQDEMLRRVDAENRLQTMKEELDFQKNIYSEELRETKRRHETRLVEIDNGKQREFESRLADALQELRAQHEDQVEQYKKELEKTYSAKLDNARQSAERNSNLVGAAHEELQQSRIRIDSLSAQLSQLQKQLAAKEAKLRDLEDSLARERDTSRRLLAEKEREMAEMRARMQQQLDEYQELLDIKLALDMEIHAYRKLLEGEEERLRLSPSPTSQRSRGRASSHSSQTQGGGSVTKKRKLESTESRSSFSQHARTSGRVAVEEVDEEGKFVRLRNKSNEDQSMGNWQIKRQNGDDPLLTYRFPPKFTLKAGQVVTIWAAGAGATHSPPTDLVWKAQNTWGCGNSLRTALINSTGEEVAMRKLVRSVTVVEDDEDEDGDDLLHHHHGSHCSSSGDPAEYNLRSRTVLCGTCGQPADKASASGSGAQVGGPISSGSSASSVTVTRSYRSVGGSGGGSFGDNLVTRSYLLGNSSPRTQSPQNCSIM
UniProt P11055, whole entry: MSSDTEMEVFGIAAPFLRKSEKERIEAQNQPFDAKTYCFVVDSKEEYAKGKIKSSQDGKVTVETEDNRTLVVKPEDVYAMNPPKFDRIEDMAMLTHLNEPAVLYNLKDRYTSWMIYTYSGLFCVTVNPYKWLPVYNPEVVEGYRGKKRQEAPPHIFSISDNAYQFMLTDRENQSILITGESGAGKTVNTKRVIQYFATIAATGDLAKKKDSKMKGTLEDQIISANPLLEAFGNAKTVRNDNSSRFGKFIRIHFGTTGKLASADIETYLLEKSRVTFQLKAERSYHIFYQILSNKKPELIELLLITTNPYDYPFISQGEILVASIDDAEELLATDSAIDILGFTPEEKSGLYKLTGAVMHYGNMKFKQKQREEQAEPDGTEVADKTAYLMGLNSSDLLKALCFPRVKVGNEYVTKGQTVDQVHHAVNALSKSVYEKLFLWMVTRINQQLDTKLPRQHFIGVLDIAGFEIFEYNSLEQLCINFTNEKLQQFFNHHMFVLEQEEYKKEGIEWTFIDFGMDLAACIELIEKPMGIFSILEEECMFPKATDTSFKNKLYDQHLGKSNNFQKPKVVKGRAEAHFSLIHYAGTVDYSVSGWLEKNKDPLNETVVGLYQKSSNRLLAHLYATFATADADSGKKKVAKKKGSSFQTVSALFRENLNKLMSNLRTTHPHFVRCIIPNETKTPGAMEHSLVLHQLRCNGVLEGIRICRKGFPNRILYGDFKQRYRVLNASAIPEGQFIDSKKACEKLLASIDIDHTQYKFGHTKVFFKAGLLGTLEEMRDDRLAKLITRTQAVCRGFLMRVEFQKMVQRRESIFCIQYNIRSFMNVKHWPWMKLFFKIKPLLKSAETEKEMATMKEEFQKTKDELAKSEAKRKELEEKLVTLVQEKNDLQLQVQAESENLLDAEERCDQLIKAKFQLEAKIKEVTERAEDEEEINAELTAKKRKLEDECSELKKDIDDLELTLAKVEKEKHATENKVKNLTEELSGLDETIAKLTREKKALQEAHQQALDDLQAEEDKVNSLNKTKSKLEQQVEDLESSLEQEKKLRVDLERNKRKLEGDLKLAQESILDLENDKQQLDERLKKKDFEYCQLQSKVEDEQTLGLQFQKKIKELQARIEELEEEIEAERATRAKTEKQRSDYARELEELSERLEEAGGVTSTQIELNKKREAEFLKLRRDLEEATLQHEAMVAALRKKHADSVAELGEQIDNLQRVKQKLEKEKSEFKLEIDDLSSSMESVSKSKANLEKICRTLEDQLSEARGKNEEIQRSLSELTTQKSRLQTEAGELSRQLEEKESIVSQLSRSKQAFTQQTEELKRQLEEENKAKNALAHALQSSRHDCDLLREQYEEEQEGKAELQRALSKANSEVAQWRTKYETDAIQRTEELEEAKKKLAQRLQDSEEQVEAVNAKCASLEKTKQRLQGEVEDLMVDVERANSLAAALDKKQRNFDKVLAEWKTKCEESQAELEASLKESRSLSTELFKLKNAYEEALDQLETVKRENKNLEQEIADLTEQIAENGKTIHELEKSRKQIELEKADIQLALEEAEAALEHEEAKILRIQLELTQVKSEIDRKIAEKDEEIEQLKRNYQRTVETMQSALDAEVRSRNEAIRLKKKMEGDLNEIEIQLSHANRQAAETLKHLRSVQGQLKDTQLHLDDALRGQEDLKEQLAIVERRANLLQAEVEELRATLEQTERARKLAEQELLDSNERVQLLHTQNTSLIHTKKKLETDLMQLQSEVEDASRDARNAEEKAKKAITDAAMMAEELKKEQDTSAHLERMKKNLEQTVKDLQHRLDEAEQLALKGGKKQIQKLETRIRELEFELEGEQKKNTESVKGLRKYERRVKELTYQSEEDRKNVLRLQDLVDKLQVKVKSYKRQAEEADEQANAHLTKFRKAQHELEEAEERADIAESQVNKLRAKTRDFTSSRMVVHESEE
UniProt P05937: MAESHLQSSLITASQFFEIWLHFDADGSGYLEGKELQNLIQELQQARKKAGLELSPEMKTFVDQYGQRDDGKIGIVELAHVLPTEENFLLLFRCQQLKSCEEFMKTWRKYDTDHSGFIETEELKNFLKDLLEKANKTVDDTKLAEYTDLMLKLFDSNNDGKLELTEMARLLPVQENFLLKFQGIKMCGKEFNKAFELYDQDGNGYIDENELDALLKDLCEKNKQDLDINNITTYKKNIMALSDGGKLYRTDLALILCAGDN
UniProt P09382, whole entry: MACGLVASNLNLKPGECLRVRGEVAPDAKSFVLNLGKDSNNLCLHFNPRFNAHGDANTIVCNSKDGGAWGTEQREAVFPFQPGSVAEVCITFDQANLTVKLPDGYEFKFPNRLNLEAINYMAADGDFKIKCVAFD

compound: Cc1nc(Nc2ncc(C(=O)Nc3c(C)cccc3Cl)s2)cc(N2CCN(CCO)CC2)n1 [dasatinib]; assay: log2 fold change of tryptic peptide abundance, ligand vs vehicle (limited proteolysis) (log2 ratio); higher = more trypsin-susceptible (destabilized); conditions: ligand concentration: 5 uM; sample: K562 cleared lysate

Q: With “UniProt P0CB38 (peptide sequence: NLDDTIDDEK, peptide start residue: 300)” as the target, how does the log2 fold change read?
A: Its log2 fold change is 0.0713.

Q: “HSP90AB1 (peptide sequence: APFDLFENK, peptide start residue: 339) (UniProt P08238)” was tested. Which log2 fold change did it give?
A: The log2 fold change was -0.18.

Q: Which log2 fold change does the source give for “UniProt P04731 (peptide sequence: CAQGCICK, peptide start residue: 44)” here?
A: The log2 fold change was 0.0197.

Q: How did the log2 fold change turn out when “MYB (peptide sequence: IIYQAHKR, peptide start residue: 154) (UniProt P10242)” was run?
A: Its log2 fold change is -0.774.

Q: Which log2 fold change does the source give for “LAMB1 (peptide sequence: CGGPGCGGLVTVAHNAWQK, peptide start residue: 1425) (UniProt P07942)” here?
A: Its log2 fold change is 0.213.

Q: How did the log2 fold change turn out when “LMNA (peptide sequence: EAALSTALSEKR, peptide start residue: 145) (UniProt P02545)” was run?
A: The log2 fold change was -0.316.

Q: For “GSTP1 (peptide sequence: MPPYTVVYFPVRGR, peptide start residue: 1) (UniProt P09211)”, which log2 fold change is on record?
A: The log2 fold change was 0.383.

Q: For “MYH3 (peptide sequence: REAEFLK, peptide start residue: 1168) (UniProt P11055)”, which log2 fold change is on record?
A: The log2 fold change was -0.0561.

Q: How did the log2 fold change turn out when “CALB1 (peptide sequence: LAEYTDLMLK, peptide start residue: 143) (UniProt P05937)” was run?
A: Its log2 fold change is 0.247.

Q: How did the log2 fold change turn out when “GNAI2 (peptide sequence: MIDKNLR, peptide start residue: 18) (UniProt P04899)” was run?
A: The log2 fold change was -0.264.

Q: With “LGALS1 (peptide sequence: LPDGYEFK, peptide start residue: 101) (UniProt P09382)” as the target, how does the log2 fold change read?
A: The log2 fold change was 0.156.
